For the test, the target named is His6-StXPB (Sulfolobus tokodaii XPB, XPBII) (Sulfolobus tokodaii) (UniProt Q970I2). Nature of the test: SEC; S200 size-exclusion chromatography of the proteins alone and mixed; calibrated with Conalbumin (75 kDa), Ovalbumin (44 kDa) and Lactalbumin (14 kDa); both purified. Background: Size exclusion chromatography separates by hydrodynamic size, large species first.

By UniProt entry, the sequences of proteins in these tests, tags left out.
UniProt Q970I2: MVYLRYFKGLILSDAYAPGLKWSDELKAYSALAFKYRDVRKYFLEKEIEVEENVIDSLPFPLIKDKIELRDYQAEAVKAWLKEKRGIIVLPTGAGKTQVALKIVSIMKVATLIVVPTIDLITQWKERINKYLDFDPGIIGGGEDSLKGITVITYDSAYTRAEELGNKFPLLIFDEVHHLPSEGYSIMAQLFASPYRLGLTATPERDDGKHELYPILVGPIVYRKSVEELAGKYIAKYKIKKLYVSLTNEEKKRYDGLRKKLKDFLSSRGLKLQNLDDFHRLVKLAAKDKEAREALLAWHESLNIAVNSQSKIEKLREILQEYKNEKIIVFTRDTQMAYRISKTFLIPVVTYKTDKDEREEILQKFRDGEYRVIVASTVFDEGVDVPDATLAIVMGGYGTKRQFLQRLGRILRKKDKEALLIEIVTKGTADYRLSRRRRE

Experimental findings from publication PMC7293015 (Nucleic Acids Research, 2020) are described below.

Results are given in words; binding and its absence hold for the method and conditions named.

In the case of “His6-StXPB (Sulfolobus tokodaii XPB, XPBII) (from UniProt Q970I2 1-439) (enzyme)”, the binding entry is listed as “no binding”.
